PubChem BioAssay AID686943 | Drosophila RNAi Screening Center | 2013
Test: 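Knockdowns that increase or decrease active ERK after insulin receptor stimulation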 (primary screen). Cells: Drosophila S2R+ haemocyte-like cells expressing YFP-tagged ERK (Rolled). Knock-down reagent: long dsRNA against Drosophila genes. Challenge: insulin stimulation versus unstimulated cells; dose and duration not given. Measurement: 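Antibody staining for doubly phosphorylated ERK divided by ERK-YFP signal, as plate z-scores, in insulin-treated and untreated cells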. Direction: replicate 1, z-score of dpERK with insulin: higher = more active ERK per ERK-YFP after insulin.
The deposit covers about 23,000 reagents; this is a random part of those with a known target gene and a result. 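Extra replicates exist only for a retested subset of genes; insulin dose and duration not given; both raised and lowered dpERK matter.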 Not all columns of the deposit are shown. The record does not give: the amount of reagent, the time to read-out.

With Rm62 [DRSC12365], how do the results read?
replicate 1, z-score of dpERK with insulin: 1.08

Which result is listed for Syx16 (Syntaxin 16) [DRSC20507]?
replicate 1, z-score of dpERK with insulin: 0.48

Which result is listed for Cp16 (Chorion protein 16) [DRSC11119]?
replicate 1, z-score of dpERK with insulin: -0.34

With CG13386 [DRSC02260], what does the deposit list?
replicate 1, z-score of dpERK with insulin: 0.2

With CG13110 [DRSC02208], what does the deposit list?
replicate 1, z-score of dpERK with insulin: 0.54

What is on record for Grx1t (Glutaredoxin 1, testis-specific) [DRSC04530]?
replicate 1, z-score of dpERK with insulin: -0.61

With CG42697 [DRSC05740], how do the results read?
replicate 1, z-score of dpERK with insulin: 0.5

What is on record for Trp1 (Translocation protein 1) [DRSC03465]?
replicate 1, z-score of dpERK with insulin: 0.8

What is on record for Gr28a (Gustatory receptor 28a) [DRSC02290]?
replicate 1, z-score of dpERK with insulin: -0.04

What is on record for Gsc (Goosecoid) [DRSC00755]?
replicate 1, z-score of dpERK with insulin: 0

What is on record for Wdfy2 (WD repeat and FYVE domain containing 2) [DRSC02822]?
replicate 1, z-score of dpERK with insulin: -0.16

For CG7714 [DRSC16300], how do the results read?
replicate 1, z-score of dpERK with insulin: 0.97

What did the screen give for Cyp9b2 (Cytochrome P450 9b2) [DRSC07390]?
replicate 1, z-score of dpERK with insulin: -0.04

For CtIP (CTBP-interacting protein) [DRSC11785], how do the results read?
replicate 1, z-score of dpERK with insulin: 0.74

With CG4757 [DRSC14130], how do the results read?
replicate 1, z-score of dpERK with insulin: -0.46

Which result is listed for CG15345 (retired record) [DRSC18030]?
replicate 1, z-score of dpERK with insulin: -0.03

Which result is listed for CG15345 (retired record) [DRSC22712]?
replicate 1, z-score of dpERK with insulin: 0.23

With CG7335 [DRSC10816], what does the deposit list?
replicate 1, z-score of dpERK with insulin: 0.61

For CG13321 [DRSC06358], how do the results read?
replicate 1, z-score of dpERK with insulin: -0.13

How did the screen score Strica (Ser/Thr-rich caspase) [DRSC04920]?
replicate 1, z-score of dpERK with insulin: 0.43

What is on record for CG6726 [DRSC16101]?
replicate 1, z-score of dpERK with insulin: -0.01
